# Reference: PubChem BioAssay AID652054 (National Center for Advancing Translational Sciences (NCATS), 2013)
# Protein sequences, listed by entry. Tags and fused reporters are not part of them.
# UniProt P35462, whole entry, looked up: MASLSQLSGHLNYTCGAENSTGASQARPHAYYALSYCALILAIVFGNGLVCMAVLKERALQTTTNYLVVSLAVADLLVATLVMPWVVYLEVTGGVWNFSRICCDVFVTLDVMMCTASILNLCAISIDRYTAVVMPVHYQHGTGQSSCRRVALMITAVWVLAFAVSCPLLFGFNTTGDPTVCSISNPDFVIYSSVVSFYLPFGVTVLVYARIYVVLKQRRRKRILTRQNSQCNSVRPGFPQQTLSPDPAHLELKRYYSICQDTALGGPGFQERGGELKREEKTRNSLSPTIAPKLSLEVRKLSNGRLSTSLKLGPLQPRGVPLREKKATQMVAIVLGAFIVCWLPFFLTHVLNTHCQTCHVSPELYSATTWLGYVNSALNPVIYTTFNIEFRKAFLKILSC
# About 9,100 (2.5%) of roughly 360,000 compounds were called active. Inconclusive results, whose numbers are uncertain, are shown with a selection of clear calls. Rule as the data show it: active = max response below about -50%; inconclusive = no clear call, values can overlap the other calls; inactive = above that.
# Target: D(3) dopamine receptor (Homo sapiens) (UniProt P35462)
# Assay: qHTS of D3 Dopamine Receptor Antagonist: qHTS
# Conditions: D3R cells, DiscoveRx beta-arrestin luminescence, antagonist mode; active compounds read low
# Procedure, shortened: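 Cells expressing the human receptor were seeded at 1500 cells/well, incubated overnight at 37 degrees C in 5% CO2, then exposed to library compounds with dopamine controls for 90 minutes at 37 degrees C before luminescent detection.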
# % is scaled to controls: 0 for no effect and ±100 for the full control effect.
row,SMILES,"max response, negative = inhibition"
1,CCC1(Oc2ccccc2)C(=O)NC(=O)NC1=O,inactive: -8.27%
2,O=C1NC(=O)C(=Cc2ccc(-c3ccc(F)cc3O)o2)C(=O)N1,inconclusive: -38.2%
3,OC(c1ccccc1)(c1ccccc1)C1CN2CCC1CC2 (stereo not drawn),active: -70%
4,CN1CCCC1C(O)(c1ccccc1)c1ccccc1 (stereo not drawn),inconclusive: -39.8%
5,Nc1ccc(N2CCN(Cc3ccccc3Cl)CC2)c(Cl)c1,active: -57.4%
6,CC(=C1C(=O)c2ccccc2C1=O)N1CCN(CCN=Cc2c(O)n(C)c(=O)n(C)c2=O)CC1,inconclusive: -40%
7,CCCCCCOc1ccc(CN2CCN(CC)CC2)cc1,inconclusive: -31.3%
8,Cc1cccc(OCC(=O)N2CCN(Cc3ccc4c(c3)OCO4)CC2)c1,inconclusive: -37%
9,c1ccc(N2[C@@H]3CC[C@H]2c2ccccc2C3)cc1,inactive: 13.6%
10,CCOC(=O)[C@]12Cc3ccc(C)cc3[C@H]1N(C1CCCCC1)C(=O)c1cc(OC)ccc12,inconclusive: -34.7%
11,NC1=C([N+](=O)[O-])C(c2ccc3c(c2)OCO3)c2c(c3ccccc3oc2=O)O1 (stereo not drawn),inactive: -11.9%
12,CCc1ccc2nc(N3CCC(C(=O)N4CCC5(CC4)OCCO5)CC3)sc2c1,inactive: -18.1%
13,CCOC(=O)c1cnc(SCc2ccc(Cl)c(Cl)c2)nc1N1CC1,inconclusive: -36%
14,CC(=O)OCC[N+](C)(C)C,inconclusive: -42.5%
15,CC(NCc1ccccc1Cl)C(O)c1ccccc1 (stereo not drawn),inconclusive: -33.9%
16,O=c1[nH]c2ccccc2n1C1CCN(C(c2cc3ccccc3o2)c2nnnn2-c2ccc3c(c2)OCCO3)CC1 (stereo not drawn),inactive: 82.7%
17,O=[N+]([O-])c1ccccc1CNCCc1c[nH]c2ccccc12,inconclusive: -43.8%
18,CCn1ccnc1CN1CCCC(C(=O)c2cccc(C(F)(F)F)c2)C1 (stereo not drawn),inconclusive: -44.3%
19,CC1=C(/C=C/c2ccccc2)CCN(C)C1,active: -63.5%
20,OC(CNCCc1c[nH]c2ccccc12)c1ccccc1 (stereo not drawn),inactive: -1.25%
21,CSc1ccc(C(=O)C2CCCN(Cc3ccn[nH]3)C2)cc1 (stereo not drawn),inactive: 2.56%
22,CSc1ccc(C(=O)C2CCCN(Cc3cc4ccccc4[nH]3)C2)cc1 (stereo not drawn),inconclusive: -33.4%

row,SMILES,"max response, negative = inhibition"
1,Fc1ccc2c(c1)nnn2C1CCN(Cc2nnnn2CCc2ccccc2)CC1,active: -74.7%
2,CCOP(=O)(OCC)C(NC(=O)c1ccccc1)=C(Cl)Cl,inconclusive: -30.6%
3,Oc1ccc(O)c2c1C1(Cl)C(Cl)=C(Cl)C2(Cl)C1(Cl)Cl,inconclusive: -31.4%
4,CCN(CCCl)c1cc(CN(C)C)cc(NC(=O)c2ccc(C(=O)Nc3cc(CN(C)C)cc(N(CC)CCCl)c3)cc2)c1,active: -84.2%
5,Cc1nn(Cc2ccccc2Cl)c(Cl)c1C(=O)OCC(=O)NC(=O)NC1CCCCC1,inconclusive: -30.8%
6,N#Cc1ncc(N=Cc2ccc(N(CCCl)CCCl)cc2)s1,inactive: -16.6%
7,CCC(=NCCCN(CC)CC)c1c(O)n(C2CCCCC2)c(=O)[nH]c1=O,inconclusive: -35.3%
8,COc1ccc(C(=O)C2CCCN(Cc3ccsc3)C2)cc1OC (stereo not drawn),inconclusive: -30.1%
9,COC(=O)C1=C(c2ccc(Cl)c(C(F)(F)F)c2)C[C@@H]2CC[C@H]1N2C(=O)NC1CCCCC1,inconclusive: -47.8%
10,COC(=O)c1ccc(CN2CCN(Cc3ccccc3)CC2)cc1,active: -81.5%
11,O=C(OC1CCN(CCCl)CC1)C(c1ccccc1)c1ccccc1,active: -94.8%
12,Cc1ccc(-c2cc(-c3ccccc3)cc(-c3ccccc3)[n+]2-c2ccccc2C(=O)O)cc1,inactive: 22.1%
13,CC(C)(C)n1nnnc1C(c1cc2ccccc2o1)N1CCC2(CC1)C(=O)NCN2c1ccccc1 (stereo not drawn),active: -98.9%
14,Cc1ccccc1C1=NCC(=S)Nc2ccc(Cl)cc21,inconclusive: -44%
15,C[C@]12CCC(=O)C=C1CC[C@@H]1[C@@H]2CC[C@@]2(C)[C@H]1CC[C@]2(C)O,inactive: 7.47%
16,COC(=O)C1=C(c2ccc(F)cc2OCc2ccccc2)C[C@@H]2CC[C@H]1N2C(=O)NC1CC1,inactive: 3.34%
17,CNCC(O)c1ccc(O)cc1 (stereo not drawn),inconclusive: -37.8%
18,CC1=CC2OC3CC4OC(=O)C=CC=CC(=O)OCCC(C)C(O)C(=O)OCC2(CC1)C4(C)C31CO1 (stereo not drawn),inactive: 33.6%
19,Cc1nc2cc(-c3ccccc3)nn2c(C)c1CCC(=O)N1CCC2(CC1)OCCO2,inconclusive: -45.4%
20,O=C(Nc1ccc(Br)cc1)N1C[C@H]2C[C@@H](C1)c1cccc(=O)n1C2,inactive: -11.6%
21,COC(=O)C1=C(c2ccc(F)cc2F)C[C@@H]2CC[C@H]1N2C(=O)NCc1ccco1,inconclusive: -33%
22,CCCCCn1c(N)c(C(=O)NCCN2CCOCC2)c2nc3ccccc3nc21,inactive: 4.22%

row,SMILES,"max response, negative = inhibition"
1,COCCNC(=O)Cn1cc(/C=C2\C(=O)NC(=O)N(c3cccc(C)c3C)C2=O)c2ccccc21,inconclusive: -46.8%
2,CC(C)(C)NC(=O)C1CC2CCCCC2CN1 (stereo not drawn),inconclusive: -31.2%
3,Cc1cccc(-n2c(O)c(C=Nc3ccc(Br)cn3)c(=O)[nH]c2=O)c1,inactive: -2.75%
4,Cc1ccc(/C=C2\C(=O)NC(=S)N(c3cccc(F)c3)C2=O)o1,inactive: 1.11%
5,COCCCNC(=O)c1c(NC(=O)c2ccccc2Cl)n(Cc2ccccc2)c2nc3ccccc3nc12,inconclusive: -47.6%
6,Cn1cnnc1Sc1cc(N2CCNCC2)ccc1[N+](=O)[O-],inactive: 2.21%
7,CN1CCN(CCOC2c3ccccc3CSc3ccc(Cl)cc32)CC1 (stereo not drawn),active: -90%
8,COC(=O)C1=C(c2ccc(-c3ccccc3)c(F)c2)C[C@@H]2CC[C@H]1N2C(=O)N1CCCCC1,inactive: -22.9%
9,CC1(C)C2CC=C(CN3CCC(O)CC3)C1C2 (stereo not drawn),inconclusive: -33.3%
10,Cc1cc(/C=C2/C(=O)NC(=O)N(c3ccccc3)C2=O)c(C)n1-c1ccc(F)cc1,inconclusive: -34.7%
11,CCC(CO)NC(=O)C1C=C2c3cccc4[nH]cc(c34)CC2N(C)C1 (stereo not drawn),active: -56.7%
12,CCOC(=O)C1(CCOc2ccccc2)CCN(Cc2ccccc2OC)CC1,inconclusive: -48.5%
13,CCc1nc(N2CCNCC2)c(C#N)c2c1CSC(C)(C)C2,active: -74%
14,c1ccc(C2CC2)c(OCC2=NCCN2)c1,inconclusive: -31.9%
15,CCOc1cc(CNCCc2c[nH]c3ccccc23)cc(Cl)c1OCC,active: -75.6%
16,CC(=NCc1ccco1)c1c(O)n(Cc2ccccc2)c(=O)[nH]c1=O,inconclusive: -42.5%
17,COC(=O)C1=C(c2ccc(OC)c(OC)c2)C[C@@H]2CC[C@H]1N2C(=O)N1CCC(C)CC1,inconclusive: -45.6%
18,O=S1(=O)CCN(CCc2c[nH]c3ccccc23)CC1,inactive: -14.7%
19,COC(=O)C1=C(c2ccc(C(C)=O)cc2)C[C@@H]2CC[C@H]1N2C(=O)NCCOc1ccccc1Cl,inconclusive: -34.2%
20,Cn1c(O)c(N=Nc2ccc(S(=O)(=O)N3CCOCC3)cc2)c(=O)n(C)c1=O,inconclusive: -43.9%
21,COc1ccccc1N1CCN(Cc2ccccc2Cl)CC1,active: -88.3%
22,COc1cc(C(=O)O)cc(OC)c1OC,inconclusive: -39.6%

# 21 of the compounds above, bar-delimited:
row | SMILES | max response, negative = inhibition
2 | O=C1NC(=O)C(=Cc2ccc(-c3ccc(F)cc3O)o2)C(=O)N1 | inconclusive: -38.2%
6 | CC(=C1C(=O)c2ccccc2C1=O)N1CCN(CCN=Cc2c(O)n(C)c(=O)n(C)c2=O)CC1 | inconclusive: -40%
7 | CCCCCCOc1ccc(CN2CCN(CC)CC2)cc1 | inconclusive: -31.3%
9 | c1ccc(N2[C@@H]3CC[C@H]2c2ccccc2C3)cc1 | inactive: 13.6%
11 | NC1=C([N+](=O)[O-])C(c2ccc3c(c2)OCO3)c2c(c3ccccc3oc2=O)O1 (stereo not drawn) | inactive: -11.9%
13 | CCOC(=O)c1cnc(SCc2ccc(Cl)c(Cl)c2)nc1N1CC1 | inconclusive: -36%
20 | OC(CNCCc1c[nH]c2ccccc12)c1ccccc1 (stereo not drawn) | inactive: -1.25%
21 | CSc1ccc(C(=O)C2CCCN(Cc3ccn[nH]3)C2)cc1 (stereo not drawn) | inactive: 2.56%
6 | N#Cc1ncc(N=Cc2ccc(N(CCCl)CCCl)cc2)s1 | inactive: -16.6%
8 | COc1ccc(C(=O)C2CCCN(Cc3ccsc3)C2)cc1OC (stereo not drawn) | inconclusive: -30.1%
9 | COC(=O)C1=C(c2ccc(Cl)c(C(F)(F)F)c2)C[C@@H]2CC[C@H]1N2C(=O)NC1CCCCC1 | inconclusive: -47.8%
13 | CC(C)(C)n1nnnc1C(c1cc2ccccc2o1)N1CCC2(CC1)C(=O)NCN2c1ccccc1 (stereo not drawn) | active: -98.9%
15 | C[C@]12CCC(=O)C=C1CC[C@@H]1[C@@H]2CC[C@@]2(C)[C@H]1CC[C@]2(C)O | inactive: 7.47%
16 | COC(=O)C1=C(c2ccc(F)cc2OCc2ccccc2)C[C@@H]2CC[C@H]1N2C(=O)NC1CC1 | inactive: 3.34%
22 | CCCCCn1c(N)c(C(=O)NCCN2CCOCC2)c2nc3ccccc3nc21 | inactive: 4.22%
8 | COC(=O)C1=C(c2ccc(-c3ccccc3)c(F)c2)C[C@@H]2CC[C@H]1N2C(=O)N1CCCCC1 | inactive: -22.9%
10 | Cc1cc(/C=C2/C(=O)NC(=O)N(c3ccccc3)C2=O)c(C)n1-c1ccc(F)cc1 | inconclusive: -34.7%
15 | CCOc1cc(CNCCc2c[nH]c3ccccc23)cc(Cl)c1OCC | active: -75.6%
16 | CC(=NCc1ccco1)c1c(O)n(Cc2ccccc2)c(=O)[nH]c1=O | inconclusive: -42.5%
19 | COC(=O)C1=C(c2ccc(C(C)=O)cc2)C[C@@H]2CC[C@H]1N2C(=O)NCCOc1ccccc1Cl | inconclusive: -34.2%
21 | COc1ccccc1N1CCN(Cc2ccccc2Cl)CC1 | active: -88.3%

# Following part:

row,SMILES,"max response, negative = inhibition"
1,COc1cccc(C(=O)N2CCC3(CC2)OCCO3)c1,inactive: -11.5%
2,O=C(CN1CC=C(c2ccccc2)CC1)NC(=O)NCc1ccco1,inconclusive: -34.6%
3,O=C(N/N=C1/CN2CCC1CC2)c1cccc(O)c1,inconclusive: -33.2%
4,COc1ccc(N2C(=O)/C(=C/c3ccc(N(C)C)o3)C(=O)NC2=S)cc1,inconclusive: -33.6%
5,CCCNC(=O)N1[C@H]2CC[C@@H]1C(C(=O)OC)=C(c1ccc(F)cc1F)C2,inactive: 6.13%
6,CCCCn1c(O)c(C(C)=NCCN2CCOCC2)c(=O)[nH]c1=O,inconclusive: -32.5%
7,Cc1ccsc1CNCCc1ccc(F)cc1,inactive: 0%
8,COCCNC(=O)N1[C@H]2CC[C@@H]1C(C(=O)OC)=C(c1ccc(OC(F)(F)F)cc1)C2,inactive: 9.01%
9,O=C(CF)N(O)c1ccc(C=Cc2ccccc2)cc1,inconclusive: -34.6%
10,CCN1CCc2ccccc2C1,inconclusive: -46.3%
11,CN1C(=O)C(c2ccc([N+](=O)[O-])cc2[N+](=O)[O-])C(=O)N(C)C1=O,inconclusive: -40.7%
12,Cc1cc(O)c(CN2CC=C(c3ccccc3)CC2)cc1C(C)C,active: -72.7%
13,COc1cc(C)c(CN2CCN(c3ccccc3)CC2)cc1C,active: -64.7%
14,CCC(=O)OC(Cc1ccccc1)(c1ccccc1)C(C)CN(C)C (stereo not drawn),active: -66%
15,c1ccc2c(CCN3CCCCC3)c[nH]c2c1,inconclusive: -32.3%
16,O=[N+]([O-])c1cccc(CN2CCN(Cc3ccc(Br)cc3)CC2)c1,active: -102%
17,COc1ccccc1CCNCc1cc2c(cc1[N+](=O)[O-])OCO2,active: -55.7%
18,COC(=O)c1c(C)n(Cc2ccccc2)c2ccc(O)cc12,inactive: 9.18%
19,NC(Cc1ccc(F)cc1)c1csc(Nc2ncccn2)n1 (stereo not drawn),inconclusive: -44.6%
20,C/C=C(\C)C(=O)N[C@@H](c1ccccc1)[C@@H](O)C(=O)O[C@H]1C[C@@]2(O)[C@@H](OC(=O)c3ccccc3)C3[C@](C)(C(=O)[C@H](O)C(=C1C)C2(C)C)[C@@H](O)C[C@H]1OC[C@@]31OC(C)=O (stereo partly drawn),inactive: 5.22%
21,Cc1ccsc1C(=O)C1CCCN(Cc2cn(C)nc2C)C1 (stereo not drawn),inconclusive: -48.2%
22,CN1CCN(Cc2nc3ccccc3n2C)CC1,inactive: -16.1%
